Measurements: PMC7093135

The chains behind the UniProt entries cited, without tags or fusion partners. Residues count along the entry.
UniProt P63168: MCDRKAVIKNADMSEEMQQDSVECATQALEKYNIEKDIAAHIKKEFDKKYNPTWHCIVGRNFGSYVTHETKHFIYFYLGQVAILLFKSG
UniProt P01887, residues 21-119: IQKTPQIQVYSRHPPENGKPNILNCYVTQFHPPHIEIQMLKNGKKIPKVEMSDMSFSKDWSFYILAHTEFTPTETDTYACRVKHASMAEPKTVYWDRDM
UniProt P62821: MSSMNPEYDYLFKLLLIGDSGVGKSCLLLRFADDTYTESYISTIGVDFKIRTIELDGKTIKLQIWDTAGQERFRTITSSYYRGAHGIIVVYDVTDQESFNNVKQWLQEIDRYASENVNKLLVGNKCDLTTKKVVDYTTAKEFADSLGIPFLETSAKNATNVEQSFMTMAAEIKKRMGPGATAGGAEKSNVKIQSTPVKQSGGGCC
UniProt P63024: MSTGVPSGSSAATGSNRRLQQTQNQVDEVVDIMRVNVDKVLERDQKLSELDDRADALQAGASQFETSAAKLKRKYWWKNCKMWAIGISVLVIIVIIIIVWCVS

B1: Snx2 (protein, UniProt Q9CWK8 1-519)
chain: MAAEREPPPLGDVKPTDFEELEDGEDLFTSTVSTLESSPSSPEPASLPAEDISANSNGSKPVEVVLDDDREDLFAEATEEVSLDSPERELILSSEPSPAVTPVTPTTLIAPRIESKSISAPVIFDRSRDEIEEEANGDIFDIEIGVSDPEKVGDGMNAYMAYRVTTKTSLSMFSKSEFSVKRRFSDFLGLHSKLASKYLHVGYIVPPAPEKSIVGMTKVKVGKEDSSSTEFVEKRRAALERYLQRTVKHPTLLQDPDLRQFLESSELPRAVNTQALSGAGILRMVNKAADAVNKMTIKMNESDAWFEEKQQQFENLDQQLRKLHASVEALVCHRKELSANTAAFAKSAAMLGNSEDHTALSRALSQLAEVEEKIDQLHQEQAFADFYMFSELLSDYIRLIAAVKGVFDHRMKCWQKWEDAQITLLKKRETEAKMMVANKPDKIQQAKNEIREWEAKVQQGERDFEQISKTIRKEVGRFEKERVKDFKAVIIKYLESLVQTQQQLIKYWEAFLPEAKAIA
B2: Canx (protein, UniProt P35564 21-591)
chain: HDGHDDDAIDIEDDLDDVIEEVEDSKSKSDASTPPSPKVTYKAPVPTGEVYFADSFDRGSLSGWILSKAKKDDTDDEIAKYDGKWEVDEMKETKLPGDKGLVLMSRAKHHAISAKLNKPFLFDTKPLIVQYEVNFQNGIECGGAYVKLLSKTAELSLDQFHDKTPYTIMFGPDKCGEDYKLHFIFRHKNPKTGVYEEKHAKRPDADLKTYFTDKKTHLYTLILNPDNSFEILVDQSVVNSGNLLNDMTPPVNPSREIEDPEDRKPEDWDERPKIADPDAVKPDDWDEDAPSKIPDEEATKPEGWLDDEPEYIPDPDAEKPEDWDEDMDGEWEAPQIANPKCESAPGCGVWQRPMIDNPNYKGKWKPPMIDNPNYQGIWKPRKIPNPDFFEDLEPFKMTPFSAIGLELWSMTSDIFFDNFIISGDRRVVDDWANDGWGLKKAADGAAEPGVVLQMLEAAEERPWLWVVYILTVALPVFLVILFCCSGKKQSNAMEYKKTDAPQPDVKDEEGKEEEKNKRDEEEEEEKLEEKQKSDAEEDGVTGSQDEEDSKPKAEEDEILNRSPRNRKPRRE

Target: Dynein light chain 1 (Dynll1) (mouse (endogenous in DC2.4)) (UniProt P63168)
Experiment: affinity purification with mass spectrometry; Dynll1 immunoprecipitated from RIPA lysates of DC2.4 cells (no infection or infected with L. monocytogenes for 6.5 h) on protein A-agarose, HPLC-MS; proteins found in the IgG control subtracted

binding, binds:
B2m (from UniProt P01887 21-119)
Rab1a (from UniProt P62821 1-205)
Vamp3 (from UniProt P63024 1-103)
B1
B2

These are yes or no findings as the source states them, for the method shown. Binding seen in cells or lysates may run through a third protein. These calls come from enrichment with a bait or labelling near it, and not all partners need be listed.
